# Data published in the supplement of paper PMC12823440, “Inhibitors supercharge kinase turnover through native proteolytic circuits” (Nature, 2025).
# Protein sequences, listed by entry. Tags and fused reporters are not part of them. Lines headed by an entry give the natural chain unless they say otherwise; changes in a name come on top.
# UniProt O15530: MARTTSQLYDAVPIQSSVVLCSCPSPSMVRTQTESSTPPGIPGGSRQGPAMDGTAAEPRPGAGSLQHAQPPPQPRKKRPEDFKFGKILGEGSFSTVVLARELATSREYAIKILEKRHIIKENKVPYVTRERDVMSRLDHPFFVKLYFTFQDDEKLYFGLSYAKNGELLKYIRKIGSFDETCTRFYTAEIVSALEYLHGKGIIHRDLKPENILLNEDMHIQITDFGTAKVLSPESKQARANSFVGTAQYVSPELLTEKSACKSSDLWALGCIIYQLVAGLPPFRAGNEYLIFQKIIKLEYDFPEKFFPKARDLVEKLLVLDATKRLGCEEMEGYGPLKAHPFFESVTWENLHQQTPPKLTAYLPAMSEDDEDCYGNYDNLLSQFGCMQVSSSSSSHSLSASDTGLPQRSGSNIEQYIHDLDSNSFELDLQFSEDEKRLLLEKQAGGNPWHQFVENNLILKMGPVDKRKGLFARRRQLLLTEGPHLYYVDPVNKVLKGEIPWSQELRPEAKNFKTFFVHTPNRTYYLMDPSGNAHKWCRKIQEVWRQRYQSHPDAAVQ
# UniProt P42356, whole entry, looked up: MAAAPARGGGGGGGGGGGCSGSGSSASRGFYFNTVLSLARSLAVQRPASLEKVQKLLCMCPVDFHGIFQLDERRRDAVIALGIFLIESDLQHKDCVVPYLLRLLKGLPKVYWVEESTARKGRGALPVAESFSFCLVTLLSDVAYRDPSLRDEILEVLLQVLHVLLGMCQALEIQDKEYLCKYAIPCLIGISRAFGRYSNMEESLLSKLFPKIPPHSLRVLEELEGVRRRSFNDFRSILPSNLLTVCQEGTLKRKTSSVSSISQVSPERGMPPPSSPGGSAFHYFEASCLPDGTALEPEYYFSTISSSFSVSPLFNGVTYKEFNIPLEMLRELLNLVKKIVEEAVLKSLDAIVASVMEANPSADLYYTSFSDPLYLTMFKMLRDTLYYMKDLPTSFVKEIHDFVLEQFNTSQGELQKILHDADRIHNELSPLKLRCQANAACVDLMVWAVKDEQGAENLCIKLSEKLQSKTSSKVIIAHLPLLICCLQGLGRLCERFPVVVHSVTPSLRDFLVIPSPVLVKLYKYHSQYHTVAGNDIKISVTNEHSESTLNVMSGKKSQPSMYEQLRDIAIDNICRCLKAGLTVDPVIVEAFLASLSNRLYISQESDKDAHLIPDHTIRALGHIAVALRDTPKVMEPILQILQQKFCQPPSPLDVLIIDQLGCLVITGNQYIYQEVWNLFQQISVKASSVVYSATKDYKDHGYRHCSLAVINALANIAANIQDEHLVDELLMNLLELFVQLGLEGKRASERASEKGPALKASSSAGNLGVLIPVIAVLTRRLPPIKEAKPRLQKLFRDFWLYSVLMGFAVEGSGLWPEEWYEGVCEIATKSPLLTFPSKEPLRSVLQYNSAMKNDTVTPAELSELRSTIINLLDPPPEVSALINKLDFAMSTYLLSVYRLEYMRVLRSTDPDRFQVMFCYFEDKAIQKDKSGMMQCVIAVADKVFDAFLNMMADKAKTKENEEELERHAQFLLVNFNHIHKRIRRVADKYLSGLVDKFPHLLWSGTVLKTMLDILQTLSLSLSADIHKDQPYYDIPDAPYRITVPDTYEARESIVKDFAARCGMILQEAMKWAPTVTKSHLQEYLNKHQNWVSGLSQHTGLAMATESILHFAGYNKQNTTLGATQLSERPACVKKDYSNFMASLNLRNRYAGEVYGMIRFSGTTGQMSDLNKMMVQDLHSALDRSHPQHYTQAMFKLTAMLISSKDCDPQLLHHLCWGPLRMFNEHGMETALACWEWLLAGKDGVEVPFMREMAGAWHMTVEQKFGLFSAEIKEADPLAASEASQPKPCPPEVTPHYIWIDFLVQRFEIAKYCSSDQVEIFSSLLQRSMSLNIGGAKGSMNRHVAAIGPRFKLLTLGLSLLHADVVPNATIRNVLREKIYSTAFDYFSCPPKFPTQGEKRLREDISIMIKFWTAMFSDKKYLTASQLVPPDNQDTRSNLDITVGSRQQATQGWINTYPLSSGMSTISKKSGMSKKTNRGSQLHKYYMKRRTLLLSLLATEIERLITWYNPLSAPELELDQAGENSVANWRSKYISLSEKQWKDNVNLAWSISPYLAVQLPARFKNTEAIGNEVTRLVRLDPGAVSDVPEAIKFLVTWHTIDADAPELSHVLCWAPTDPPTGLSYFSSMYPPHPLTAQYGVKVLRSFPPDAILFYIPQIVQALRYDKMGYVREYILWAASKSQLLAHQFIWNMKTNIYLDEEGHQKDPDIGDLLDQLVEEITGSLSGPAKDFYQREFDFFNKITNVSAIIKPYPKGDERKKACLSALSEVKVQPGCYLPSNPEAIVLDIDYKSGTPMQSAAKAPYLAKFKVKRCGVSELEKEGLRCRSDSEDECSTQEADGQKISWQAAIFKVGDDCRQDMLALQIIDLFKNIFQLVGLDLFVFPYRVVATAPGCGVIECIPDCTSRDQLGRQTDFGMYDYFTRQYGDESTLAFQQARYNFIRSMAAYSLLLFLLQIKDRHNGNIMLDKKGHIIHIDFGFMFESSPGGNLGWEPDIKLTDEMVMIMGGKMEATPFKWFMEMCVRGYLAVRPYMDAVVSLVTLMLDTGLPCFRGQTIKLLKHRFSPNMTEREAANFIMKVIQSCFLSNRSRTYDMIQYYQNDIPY
# UniProt Q13131: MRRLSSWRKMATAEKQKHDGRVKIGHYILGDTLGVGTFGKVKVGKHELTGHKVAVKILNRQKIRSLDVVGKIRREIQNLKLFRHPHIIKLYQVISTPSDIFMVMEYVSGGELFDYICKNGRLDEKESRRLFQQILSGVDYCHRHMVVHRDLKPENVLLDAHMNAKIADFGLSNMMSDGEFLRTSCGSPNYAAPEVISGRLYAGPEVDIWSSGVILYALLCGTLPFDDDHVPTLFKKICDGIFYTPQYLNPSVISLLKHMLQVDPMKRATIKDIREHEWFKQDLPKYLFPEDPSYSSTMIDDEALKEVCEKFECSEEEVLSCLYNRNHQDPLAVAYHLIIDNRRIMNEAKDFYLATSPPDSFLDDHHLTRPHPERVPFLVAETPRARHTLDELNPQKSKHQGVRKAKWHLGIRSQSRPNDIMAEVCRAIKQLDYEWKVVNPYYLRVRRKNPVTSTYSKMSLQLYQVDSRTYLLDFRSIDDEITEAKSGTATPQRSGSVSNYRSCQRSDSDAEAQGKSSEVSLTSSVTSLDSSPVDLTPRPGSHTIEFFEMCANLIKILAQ
# UniProt P07949, whole entry, looked up: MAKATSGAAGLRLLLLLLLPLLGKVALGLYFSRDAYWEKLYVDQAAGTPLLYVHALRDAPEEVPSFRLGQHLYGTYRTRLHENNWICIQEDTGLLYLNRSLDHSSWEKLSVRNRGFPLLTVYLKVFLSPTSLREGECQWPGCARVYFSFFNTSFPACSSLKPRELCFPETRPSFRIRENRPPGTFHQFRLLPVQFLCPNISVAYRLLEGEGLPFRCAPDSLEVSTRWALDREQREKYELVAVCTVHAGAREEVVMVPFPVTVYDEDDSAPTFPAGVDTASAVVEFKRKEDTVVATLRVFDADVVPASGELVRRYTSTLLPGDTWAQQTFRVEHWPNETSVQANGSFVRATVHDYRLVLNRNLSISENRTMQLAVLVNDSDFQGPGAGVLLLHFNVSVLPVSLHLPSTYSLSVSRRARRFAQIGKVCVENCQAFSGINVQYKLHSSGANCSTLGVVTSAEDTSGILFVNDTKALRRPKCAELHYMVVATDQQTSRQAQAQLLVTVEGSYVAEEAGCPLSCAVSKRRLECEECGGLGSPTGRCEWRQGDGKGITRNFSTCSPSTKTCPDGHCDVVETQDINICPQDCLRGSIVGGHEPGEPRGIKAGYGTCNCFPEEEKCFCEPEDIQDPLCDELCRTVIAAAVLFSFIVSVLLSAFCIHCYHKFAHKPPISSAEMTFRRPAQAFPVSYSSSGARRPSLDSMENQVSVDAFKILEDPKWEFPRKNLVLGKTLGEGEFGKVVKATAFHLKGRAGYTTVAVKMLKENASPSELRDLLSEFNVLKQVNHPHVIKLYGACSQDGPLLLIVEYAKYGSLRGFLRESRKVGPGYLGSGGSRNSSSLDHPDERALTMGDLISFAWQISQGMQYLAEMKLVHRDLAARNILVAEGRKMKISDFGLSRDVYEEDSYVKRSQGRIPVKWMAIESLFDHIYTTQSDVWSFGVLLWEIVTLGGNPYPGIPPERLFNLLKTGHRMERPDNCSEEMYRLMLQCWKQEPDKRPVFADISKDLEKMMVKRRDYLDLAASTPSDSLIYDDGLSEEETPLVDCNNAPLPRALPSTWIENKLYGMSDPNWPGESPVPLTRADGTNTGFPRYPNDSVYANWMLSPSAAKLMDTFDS
# UniProt P07949, whole entry M918T, looked up: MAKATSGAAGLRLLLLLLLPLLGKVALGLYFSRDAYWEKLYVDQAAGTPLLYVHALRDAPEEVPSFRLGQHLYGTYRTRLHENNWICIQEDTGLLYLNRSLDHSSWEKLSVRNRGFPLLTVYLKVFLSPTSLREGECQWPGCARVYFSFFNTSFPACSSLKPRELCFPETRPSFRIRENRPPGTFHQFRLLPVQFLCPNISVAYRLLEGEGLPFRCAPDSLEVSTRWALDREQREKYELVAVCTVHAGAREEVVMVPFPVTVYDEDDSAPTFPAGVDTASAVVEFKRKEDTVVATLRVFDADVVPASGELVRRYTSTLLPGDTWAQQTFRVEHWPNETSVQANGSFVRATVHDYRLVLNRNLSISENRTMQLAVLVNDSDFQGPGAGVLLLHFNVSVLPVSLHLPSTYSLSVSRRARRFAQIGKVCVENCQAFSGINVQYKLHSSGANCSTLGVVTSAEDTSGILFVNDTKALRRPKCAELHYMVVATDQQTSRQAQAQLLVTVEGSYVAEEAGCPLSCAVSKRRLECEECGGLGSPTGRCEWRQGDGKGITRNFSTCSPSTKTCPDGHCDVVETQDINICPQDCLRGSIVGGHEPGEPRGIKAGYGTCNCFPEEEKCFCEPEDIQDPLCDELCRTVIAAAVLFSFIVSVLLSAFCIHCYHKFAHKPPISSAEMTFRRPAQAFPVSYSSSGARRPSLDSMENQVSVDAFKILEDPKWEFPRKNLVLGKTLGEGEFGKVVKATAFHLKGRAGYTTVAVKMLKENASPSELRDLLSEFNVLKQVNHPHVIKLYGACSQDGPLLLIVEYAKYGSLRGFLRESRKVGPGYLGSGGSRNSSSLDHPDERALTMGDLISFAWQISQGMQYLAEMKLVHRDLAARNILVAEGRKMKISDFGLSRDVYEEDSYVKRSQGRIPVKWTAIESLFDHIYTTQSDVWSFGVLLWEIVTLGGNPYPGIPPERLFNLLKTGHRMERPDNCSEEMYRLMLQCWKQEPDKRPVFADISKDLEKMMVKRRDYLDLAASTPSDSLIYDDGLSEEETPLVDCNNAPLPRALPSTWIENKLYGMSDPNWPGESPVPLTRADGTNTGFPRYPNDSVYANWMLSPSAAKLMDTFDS
# UniProt Q9BRS2: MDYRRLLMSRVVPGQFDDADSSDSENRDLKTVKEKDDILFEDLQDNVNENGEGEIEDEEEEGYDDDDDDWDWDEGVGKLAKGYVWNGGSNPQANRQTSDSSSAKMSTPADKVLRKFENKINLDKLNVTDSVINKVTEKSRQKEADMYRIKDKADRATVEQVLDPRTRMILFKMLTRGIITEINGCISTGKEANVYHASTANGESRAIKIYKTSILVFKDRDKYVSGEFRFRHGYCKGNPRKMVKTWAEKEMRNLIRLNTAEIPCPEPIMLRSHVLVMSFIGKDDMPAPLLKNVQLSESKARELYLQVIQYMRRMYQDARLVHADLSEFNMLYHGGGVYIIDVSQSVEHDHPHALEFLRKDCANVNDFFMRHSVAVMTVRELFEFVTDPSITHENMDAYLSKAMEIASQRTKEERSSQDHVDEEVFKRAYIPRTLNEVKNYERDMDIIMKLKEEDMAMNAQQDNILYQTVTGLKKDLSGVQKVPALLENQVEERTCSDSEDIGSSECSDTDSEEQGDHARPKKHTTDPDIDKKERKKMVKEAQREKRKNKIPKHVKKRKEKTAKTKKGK
# UniProt Q9Y6E0: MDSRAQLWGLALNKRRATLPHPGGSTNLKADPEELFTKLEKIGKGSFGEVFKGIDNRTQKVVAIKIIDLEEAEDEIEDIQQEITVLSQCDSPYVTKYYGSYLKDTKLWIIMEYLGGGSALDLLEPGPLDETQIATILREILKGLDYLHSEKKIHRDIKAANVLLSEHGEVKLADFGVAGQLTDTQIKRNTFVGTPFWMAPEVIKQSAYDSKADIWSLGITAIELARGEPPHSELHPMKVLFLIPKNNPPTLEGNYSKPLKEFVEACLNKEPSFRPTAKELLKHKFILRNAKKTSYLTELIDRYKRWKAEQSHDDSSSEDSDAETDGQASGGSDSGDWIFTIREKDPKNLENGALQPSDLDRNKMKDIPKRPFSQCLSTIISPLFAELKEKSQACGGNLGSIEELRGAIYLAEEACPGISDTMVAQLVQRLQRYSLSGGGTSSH
# Where a name gives a salt, the structure may show the parent alone. The list shows a part of the results. Hit calls seldom repeat between salt and free forms of one compound.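 In K562 cells expressing nanoluciferase-fused kinases, luminescence was recorded at 4 h intervals between 2 and 18 h, normalized as percent of control with DMSO at 100% and a positive control at 0%. A significant (2 sigma) signal drop marks a time point as decreased. The authors' rule for a hit is not shown and takes in more than the number of time points.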
# What was measured:
# Assay in all cases: kinase-Nluc reporter destabilization hit call (1 = scored as downregulated) (binary); higher = compound decreases kinase abundance
# Conditions in all cases: K562; 2-18 h
# PDPK1 = PDPK1 (UniProt O15530)
# PIK4CA = PIK4CA (UniProt P42356)
# PIK4CB = PIK4CB (UniProt Q9UBF8)
# PLK1 = PLK1 (UniProt P53350)
# PRKAA1 = PRKAA1 (UniProt Q13131)
# PRKCA = PRKCA (UniProt P17252)
# PTK2 = PTK2 (UniProt Q05397)
# PTK2B = PTK2B (UniProt Q14289)
# RAF1 = RAF1 (UniProt P04049)
# [1] = molecular target: RAF1_S257L (clone: RAF1_mut) (UniProt P04049)
# RET = RET (UniProt P07949)
# [2] = molecular target: RET_M918T (clone: RET_mut) (UniProt P07949)
# RIOK1 = RIOK1 (UniProt Q9BRS2)
# RIPK1 = RIPK1 (UniProt Q13546)
# RIPK2 = RIPK2 (UniProt O43353)
# ROR2 = ROR2 (UniProt Q01974)
# RPS6KA1 = RPS6KA1 (UniProt Q15418)
# SPHK1 = SPHK1 (UniProt Q9NYA1)
# SRC = SRC (UniProt P12931)
# STK24 = STK24 (UniProt Q9Y6E0)
Compound,kinase-Nluc reporter destabilization hit call (PDPK1),kinase-Nluc reporter destabilization hit call (PIK4CA),kinase-Nluc reporter destabilization hit call (PIK4CB),kinase-Nluc reporter destabilization hit call (PLK1),kinase-Nluc reporter destabilization hit call (PRKAA1),kinase-Nluc reporter destabilization hit call (PRKCA),kinase-Nluc reporter destabilization hit call (PTK2),kinase-Nluc reporter destabilization hit call (PTK2B),kinase-Nluc reporter destabilization hit call (RAF1),kinase-Nluc reporter destabilization hit call [1],kinase-Nluc reporter destabilization hit call (RET),kinase-Nluc reporter destabilization hit call [2],kinase-Nluc reporter destabilization hit call (RIOK1),kinase-Nluc reporter destabilization hit call (RIPK1),kinase-Nluc reporter destabilization hit call (RIPK2),kinase-Nluc reporter destabilization hit call (ROR2),kinase-Nluc reporter destabilization hit call (RPS6KA1),kinase-Nluc reporter destabilization hit call (SPHK1),kinase-Nluc reporter destabilization hit call (SRC),kinase-Nluc reporter destabilization hit call (STK24)
CC(C)(O)c1cc2nc(-c3cnc(N)nc3)nc(N3CCOCC3)c2s1 (2.5 µM),inactive: 0,inactive: 0,inactive: 0,inactive: 0,inactive: 0,inactive: 0,inactive: 0,inactive: 0,inactive: 0,inactive: 0,inactive: 0,inactive: 0,inactive: 0,inactive: 0,inactive: 0,inactive: 0,inactive: 0,inactive: 0,inactive: 0,inactive: 0
O=C(Nc1nccs1)C(c1cc(F)ccc1O)N1Cc2ccccc2C1=O (stereo not given) (10 µM),inactive: 0,inactive: 0,inactive: 0,inactive: 0,inactive: 0,inactive: 0,inactive: 0,inactive: 0,inactive: 0,inactive: 0,inactive: 0,inactive: 0,inactive: 0,inactive: 0,inactive: 0,inactive: 0,inactive: 0,inactive: 0,inactive: 0,inactive: 0
C[C@@H](N)COc1ccc(-c2cnc3ccc(N[C@H](C)c4cccc(F)c4)nn23)cc1 [Taletrectinib] (2.5 µM),inactive: 0,inactive: 0,inactive: 0,inactive: 0,inactive: 0,inactive: 0,inactive: 0,inactive: 0,inactive: 0,inactive: 0,inactive: 0,inactive: 0,inactive: 0,inactive: 0,inactive: 0,inactive: 0,inactive: 0,inactive: 0,inactive: 0,inactive: 0
CNS(=O)(=O)Nc1nccc(Cc2c(C)c3ccc(Oc4ncccn4)cc3oc2=O)c1F (10 µM),inactive: 0,inactive: 0,inactive: 0,inactive: 0,inactive: 0,inactive: 0,inactive: 0,inactive: 0,inactive: 0,inactive: 0,inactive: 0,inactive: 0,inactive: 0,inactive: 0,inactive: 0,inactive: 0,inactive: 0,inactive: 0,inactive: 0,inactive: 0
C=CC(=O)N[C@H]1CCOC[C@H]1Nc1ncc2cc(-c3c(Cl)c(OC)cc(OC)c3Cl)ccc2n1 [Fisogatinib] (10 µM),inactive: 0,inactive: 0,inactive: 0,inactive: 0,inactive: 0,inactive: 0,inactive: 0,inactive: 0,inactive: 0,inactive: 0,inactive: 0,inactive: 0,inactive: 0,inactive: 0,inactive: 0,inactive: 0,inactive: 0,inactive: 0,inactive: 0,inactive: 0
CCc1nc(C(N)=O)c(Nc2ccc(N3CCC(N4CCN(C)CC4)CC3)c(OC)c2)nc1NC1CCC(OC)CC1 (stereo not given) [EML4-ALK kinase inhibitor 1] (2.5 µM),inactive: 0,inactive: 0,inactive: 0,inactive: 0,inactive: 0,inactive: 0,inactive: 0,inactive: 0,inactive: 0,inactive: 0,inactive: 0,inactive: 0,inactive: 0,inactive: 0,inactive: 0,inactive: 0,inactive: 0,inactive: 0,inactive: 0,inactive: 0
C[C@H]1CNC(=O)c2cnn3ccc(nc23)N[C@H](C)c2cc(F)ccc2O1 [Repotrectinib] (2.5 µM),inactive: 0,inactive: 0,inactive: 0,inactive: 0,inactive: 0,inactive: 0,inactive: 0,inactive: 0,inactive: 0,inactive: 0,inactive: 0,inactive: 0,inactive: 0,inactive: 0,inactive: 0,inactive: 0,inactive: 0,inactive: 0,inactive: 0,inactive: 0
C=CC(=O)Nc1cc(C(=O)NC)cc(-c2n[nH]c3ccccc23)c1 (10 µM),inactive: 0,inactive: 0,inactive: 0,inactive: 0,inactive: 0,inactive: 0,inactive: 0,inactive: 0,inactive: 0,inactive: 0,inactive: 0,inactive: 0,inactive: 0,inactive: 0,inactive: 0,inactive: 0,inactive: 0,inactive: 0,inactive: 0,inactive: 0
CS(=O)(=O)N1CCN(Cc2cn3cc(-c4cnc(N)nc4)nc(N4CCOCC4)c3n2)CC1 (10 µM),inactive: 0,inactive: 0,inactive: 0,inactive: 0,inactive: 0,inactive: 0,inactive: 0,inactive: 0,inactive: 0,inactive: 0,inactive: 0,inactive: 0,inactive: 0,inactive: 0,inactive: 0,inactive: 0,inactive: 0,inactive: 0,inactive: 0,inactive: 0
Cc1c(Br)c(Br)c2c3c1nc(N1CCNCC1)n3CCC2 [SEL120-34A (monohydrochloride)] (2.5 µM),inactive: 0,inactive: 0,inactive: 0,inactive: 0,inactive: 0,inactive: 0,inactive: 0,inactive: 0,inactive: 0,inactive: 0,inactive: 0,inactive: 0,inactive: 0,inactive: 0,inactive: 0,inactive: 0,inactive: 0,inactive: 0,inactive: 0,inactive: 0
CNCCOc1ccccc1C(C)(C)Nc1nccn(-c2cc(C(=O)NC3CC3)ccc2C)c1=O [p38α inhibitor 2] (10 µM),inactive: 0,inactive: 0,inactive: 0,inactive: 0,inactive: 0,inactive: 0,inactive: 0,inactive: 0,inactive: 0,inactive: 0,inactive: 0,inactive: 0,inactive: 0,inactive: 0,inactive: 0,inactive: 0,inactive: 0,inactive: 0,inactive: 0,inactive: 0
CN(C)C(=O)c1cc2cnc(Nc3ccc(NC(=O)C4(C(=O)Nc5ccc(F)cc5)CC4)cc3)nc2n1C1CCCC1 (2 µM),inactive: 0,inactive: 0,inactive: 0,inactive: 0,inactive: 0,inactive: 0,inactive: 0,inactive: 0,inactive: 0,inactive: 0,inactive: 0,inactive: 0,inactive: 0,inactive: 0,inactive: 0,inactive: 0,inactive: 0,inactive: 0,inactive: 0,inactive: 0
CC(C)n1cnnc1-c1cccc(NC(=O)c2cc3ccc(F)cc3[nH]2)n1 (2.5 µM),inactive: 0,inactive: 0,inactive: 0,inactive: 0,inactive: 0,inactive: 0,inactive: 0,inactive: 0,inactive: 0,active: 1,inactive: 0,inactive: 0,inactive: 0,inactive: 0,inactive: 0,inactive: 0,inactive: 0,inactive: 0,inactive: 0,inactive: 0
CC(C)(O)c1cc(Nc2cc(Oc3cn(C4CC4)nc3C3CCOCC3)ccn2)ccn1 (10 µM),inactive: 0,inactive: 0,inactive: 0,inactive: 0,inactive: 0,inactive: 0,inactive: 0,inactive: 0,inactive: 0,inactive: 0,inactive: 0,inactive: 0,inactive: 0,inactive: 0,inactive: 0,inactive: 0,inactive: 0,inactive: 0,inactive: 0,inactive: 0
Cc1ccc(-c2csc(Cn3nc(CC4OCCCO4)c4ccccc4c3=O)n2)cc1 (10 µM),inactive: 0,inactive: 0,inactive: 0,inactive: 0,inactive: 0,inactive: 0,inactive: 0,inactive: 0,inactive: 0,inactive: 0,inactive: 0,inactive: 0,inactive: 0,inactive: 0,inactive: 0,inactive: 0,inactive: 0,inactive: 0,inactive: 0,inactive: 0
Clc1ccc(Nc2cccc(-c3cn[nH]c3)c2)cc1 (10 µM),inactive: 0,inactive: 0,inactive: 0,inactive: 0,inactive: 0,inactive: 0,inactive: 0,inactive: 0,inactive: 0,inactive: 0,inactive: 0,inactive: 0,inactive: 0,inactive: 0,inactive: 0,inactive: 0,inactive: 0,inactive: 0,inactive: 0,inactive: 0

# Shown with tabs: 2 of the compounds above
Compound	kinase-Nluc reporter destabilization hit call (PDPK1)	kinase-Nluc reporter destabilization hit call (PIK4CA)	kinase-Nluc reporter destabilization hit call (PIK4CB)	kinase-Nluc reporter destabilization hit call (PLK1)	kinase-Nluc reporter destabilization hit call (PRKAA1)	kinase-Nluc reporter destabilization hit call (PRKCA)	kinase-Nluc reporter destabilization hit call (PTK2)	kinase-Nluc reporter destabilization hit call (PTK2B)	kinase-Nluc reporter destabilization hit call (RAF1)	kinase-Nluc reporter destabilization hit call [1]	kinase-Nluc reporter destabilization hit call (RET)	kinase-Nluc reporter destabilization hit call [2]	kinase-Nluc reporter destabilization hit call (RIOK1)	kinase-Nluc reporter destabilization hit call (RIPK1)	kinase-Nluc reporter destabilization hit call (RIPK2)	kinase-Nluc reporter destabilization hit call (ROR2)	kinase-Nluc reporter destabilization hit call (RPS6KA1)	kinase-Nluc reporter destabilization hit call (SPHK1)	kinase-Nluc reporter destabilization hit call (SRC)	kinase-Nluc reporter destabilization hit call (STK24)
C[C@@H](N)COc1ccc(-c2cnc3ccc(N[C@H](C)c4cccc(F)c4)nn23)cc1 [Taletrectinib] (2.5 µM)	inactive: 0	inactive: 0	inactive: 0	inactive: 0	inactive: 0	inactive: 0	inactive: 0	inactive: 0	inactive: 0	inactive: 0	inactive: 0	inactive: 0	inactive: 0	inactive: 0	inactive: 0	inactive: 0	inactive: 0	inactive: 0	inactive: 0	inactive: 0
CS(=O)(=O)N1CCN(Cc2cn3cc(-c4cnc(N)nc4)nc(N4CCOCC4)c3n2)CC1 (10 µM)	inactive: 0	inactive: 0	inactive: 0	inactive: 0	inactive: 0	inactive: 0	inactive: 0	inactive: 0	inactive: 0	inactive: 0	inactive: 0	inactive: 0	inactive: 0	inactive: 0	inactive: 0	inactive: 0	inactive: 0	inactive: 0	inactive: 0	inactive: 0
